PubChem BioAssay AID1259254 | NCATS – 2017
Aim: 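Genome-wide screen for genes that prevent DNA re-replication in cancer cells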 (primary screen). System: human HCT116 colorectal cancer cells. Reagents: single siRNA against human genes. Time to read-out: 3 days. Measurement: 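Nuclei stained with Hoechst and imaged; cell-cycle phase assigned by DNA content; G2 share scaled per plate, non-targeting siRNA 0%, GMNN siRNA 100%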. Direction: G2 robust z-score and G2 cells, % of GMNN control: higher = more G2 cells, more excess DNA replication; raw share of cells in G2: higher = larger share of cells with G2 DNA content. Call rule: 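An siRNA counts as active if its G2 robust z-score lies at least 5 MADs above the screen median; here such calls match roughly 38% of GMNN control or more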.
Here is a random part of about 59,000 reagents. Of all reagents, about 1,550 (2.6%) are marked active. 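G2 share is only a proxy for re-replication; each gene was hit by three separate siRNAs, and active genes were retested.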 Raw values vary from plate to plate and are shown uncorrected. Entries without a mark were called inactive. Reagents against one gene are numbered here. The record does not give: the amount of reagent.

| Target gene | reagent | G2 robust z-score | G2 cells, % of GMNN control | raw share of cells in G2 (%) |
| --- | --- | --- | --- | --- |
| KCNJ8 (potassium inwardly rectifying channel subfamily J member 8) | 1 | -0.137 | 2 | 6.02 |
| KCNJ8 (potassium inwardly rectifying channel subfamily J member 8) | 2 | -0.022 | 2.81 | 5.73 |
| KCNJ8 (potassium inwardly rectifying channel subfamily J member 8) | 3 | -1.15 | -5.15 | 2.37 |
| SPI1 (Spi-1 proto-oncogene) | 1 | -0.771 | -2.46 | 4.85 |
| SPI1 (Spi-1 proto-oncogene) | 2 | 0.829 | 8.8 | 6.87 |
| SPI1 (Spi-1 proto-oncogene) | 3 | 1.41 | 12.9 | 8.97 |
| ADGRG2 (adhesion G protein-coupled receptor G2) | 1 | -0.66 | -1.68 | 5.24 |
| ADGRG2 (adhesion G protein-coupled receptor G2) | 2 | -0.672 | -1.76 | 3.9 |
| ADGRG2 (adhesion G protein-coupled receptor G2) | 3 | 0.72 | 8.03 | 5.73 |
| LAMC2 (laminin subunit gamma 2) | 1 | -0.933 | -3.6 | 2.03 |
| LAMC2 (laminin subunit gamma 2) | 2 | -0.476 | -0.38 | 4.67 |
| LAMC2 (laminin subunit gamma 2) | 3 | 0.274 | 4.9 | 4.89 |
| NAGK (N-acetylglucosamine kinase) | 1 | -0.337 | 0.598 | 3.87 |
| NAGK (N-acetylglucosamine kinase) | 2 | -1.25 | -5.85 | 3.77 |
| NAGK (N-acetylglucosamine kinase) | 3 | -1.15 | -5.13 | 3.33 |
| COX8C (cytochrome c oxidase subunit 8C) | 1 | 2.04 | 17.3 | 10.6 |
| COX8C (cytochrome c oxidase subunit 8C) | 2 | 2.93 | 23.6 | 14.2 |
| COX8C (cytochrome c oxidase subunit 8C) | 3 | 0.0601 | 3.39 | 7.37 |
| FCRL3 (Fc receptor like 3) | 1 | 4.31 | 33.3 | 17 |
| FCRL3 (Fc receptor like 3) | 2 | 0.779 | 8.45 | 8.59 |
| FCRL3 (Fc receptor like 3) | 3 | -0.297 | 0.879 | 6.08 |
| WNT4 (Wnt family member 4) | 1 | 1.61 | 14.3 | 8.72 |
| WNT4 (Wnt family member 4) | 2 | 0.425 | 5.96 | 6.78 |
| WNT4 (Wnt family member 4) | 3 | -0.558 | -0.961 | 2.87 |
| HSD17B3 (hydroxysteroid 17-beta dehydrogenase 3) | 1 | 0.343 | 5.38 | 7 |
| HSD17B3 (hydroxysteroid 17-beta dehydrogenase 3) | 2 | -0.535 | -0.798 | 5.38 |
| HSD17B3 (hydroxysteroid 17-beta dehydrogenase 3) | 3 | 0.404 | 5.81 | 6.33 |
| GREM2 (gremlin 2, DAN family BMP antagonist) | 1 | -0.707 | -2.01 | 2.17 |
| GREM2 (gremlin 2, DAN family BMP antagonist) | 2 | 4.8 | 36.7 | 20.6 |
| GREM2 (gremlin 2, DAN family BMP antagonist) | 3 | -0.505 | -0.584 | 4.35 |
| ETV4 (ETS variant transcription factor 4) | 1 | 0.0752 | 3.5 | 4.85 |
| ETV4 (ETS variant transcription factor 4) | 2 | 0.331 | 5.29 | 7.33 |
| ETV4 (ETS variant transcription factor 4) | 3 | 0.449 | 6.13 | 5.33 |
| S100PBP (S100P binding protein) | 1 | -0.0541 | 2.59 | 5.71 |
| S100PBP (S100P binding protein) | 2 | -0.178 | 1.71 | 5.38 |
| S100PBP (S100P binding protein) | 3 | 1.78 | 15.5 | 6.79 |
| GUCD1 (guanylyl cyclase domain containing 1) | 1 | 0.596 | 7.16 | 6.49 |
| GUCD1 (guanylyl cyclase domain containing 1) | 2 | 0.127 | 3.86 | 4.6 |
| GUCD1 (guanylyl cyclase domain containing 1) | 3 | -0.629 | -1.46 | 1.96 |
| RPS9 (ribosomal protein S9) | 1 | 4.38 | 33.8 | 19.4 |
| RPS9 (ribosomal protein S9) | 2 | 4.48 | 34.5 | 17.9 |
| RPS9 (ribosomal protein S9) | 3 | 3.9 | 30.4 | 14.3 |
| LINC01114 (long intergenic non-protein coding RNA 1114) | 1 | 1.79 | 15.5 | 9.31 |
| LINC01114 (long intergenic non-protein coding RNA 1114) | 2 | 0.483 | 6.37 | 5.51 |
| LINC01114 (long intergenic non-protein coding RNA 1114) | 3 | -0.523 | -0.714 | 3.05 |

Next part; the last 3 above are carried over.
| Target gene | reagent | G2 robust z-score | G2 cells, % of GMNN control | raw share of cells in G2 (%) |
| --- | --- | --- | --- | --- |
| LINC01114 (long intergenic non-protein coding RNA 1114) | 1 | 1.79 | 15.5 | 9.31 |
| LINC01114 (long intergenic non-protein coding RNA 1114) | 2 | 0.483 | 6.37 | 5.51 |
| LINC01114 (long intergenic non-protein coding RNA 1114) | 3 | -0.523 | -0.714 | 3.05 |
| DHODH (dihydroorotate dehydrogenase (quinone)) | 1 | -0.399 | 0.161 | 4.15 |
| DHODH (dihydroorotate dehydrogenase (quinone)) | 2 | 2.67 | 21.8 | 12.9 |
| DHODH (dihydroorotate dehydrogenase (quinone)) | 3 | -0.282 | 0.986 | 5.31 |
| OR56B4 (olfactory receptor family 56 subfamily B member 4) | 1 | -0.609 | -1.32 | 3.13 |
| OR56B4 (olfactory receptor family 56 subfamily B member 4) | 2 | -1.07 | -4.53 | 1.44 |
| OR56B4 (olfactory receptor family 56 subfamily B member 4) | 3 | 3.35 | 26.6 | 11.2 |
| ALDH1A3 (aldehyde dehydrogenase 1 family member A3) | 1 | -0.704 | -1.99 | 4.47 |
| ALDH1A3 (aldehyde dehydrogenase 1 family member A3) | 2 | -0.773 | -2.47 | 4.82 |
| ALDH1A3 (aldehyde dehydrogenase 1 family member A3) | 3 | -0.698 | -1.95 | 3.06 |
| SLX4 (SLX4 structure-specific endonuclease subunit) | 1 | 1.04 | 10.3 | 7.53 |
| SLX4 (SLX4 structure-specific endonuclease subunit) | 2 | -0.848 | -3 | 2.57 |
| SLX4 (SLX4 structure-specific endonuclease subunit) | 3 | -0.774 | -2.48 | 1.65 |
| KCNQ4 (potassium voltage-gated channel subfamily Q member 4) | 1 | 1.72 | 15.1 | 10.8 |
| KCNQ4 (potassium voltage-gated channel subfamily Q member 4) | 2 | 3.15 | 25.1 | 13.3 |
| KCNQ4 (potassium voltage-gated channel subfamily Q member 4) | 3 | -0.827 | -2.85 | 3.26 |
| ASPRV1 (aspartic peptidase retroviral like 1) | 1 | -0.473 | -0.358 | 3.71 |
| ASPRV1 (aspartic peptidase retroviral like 1) | 2 | 2.07 | 17.5 | 8.33 |
| ASPRV1 (aspartic peptidase retroviral like 1) | 3 | -1.06 | -4.51 | 1.5 |
| AP2S1 (adaptor related protein complex 2 subunit sigma 1) | 1 | -0.772 | -2.47 | 3.25 |
| AP2S1 (adaptor related protein complex 2 subunit sigma 1) | 2 | -0.638 | -1.52 | 4.42 |
| AP2S1 (adaptor related protein complex 2 subunit sigma 1) | 3 | -0.337 | 0.598 | 5.21 |
| EMC7 (ER membrane protein complex subunit 7) | 1 | -1.05 | -4.45 | 2.59 |
| EMC7 (ER membrane protein complex subunit 7) | 2 | 0.555 | 6.87 | 7.74 |
| EMC7 (ER membrane protein complex subunit 7) | 3 | -0.742 | -2.26 | 2.31 |
